Reference: publication PMC2632646
These are yes or no findings as the source states them, for the method shown. Binding seen in cells or lysates may run through a third protein. Some results given as binding are weak or reduced against the parent protein; the word gives no strength.

By UniProt entry, the sequences of proteins in these tests, tags left out.
UniProt Q13526: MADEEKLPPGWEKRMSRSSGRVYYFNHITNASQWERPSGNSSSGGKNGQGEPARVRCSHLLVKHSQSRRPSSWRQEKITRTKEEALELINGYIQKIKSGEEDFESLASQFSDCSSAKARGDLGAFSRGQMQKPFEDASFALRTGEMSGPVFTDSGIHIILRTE

Target: erbB2 (human (endogenous in SKBR3)) (UniProt P04626)
Assay: co-IP; cell lysates immunoprecipitated with anti-erbB2 antibodies, immunoblot for erbB2, Ubiquitin, Tubulin and Pin1; SKBR3 cells transfected with control or Pin1 siRNA for 72 hours, treated with 100 uM ALLnL 6 hours before lysis

## Prolyl isomerase Pin1 (from UniProt Q13526 1-163) (enzyme)
  binding: binds
